In article PMC9767416, “Discovery of small molecule mechanistic target of rapamycin inhibitors as anti-aging and anti-cancer therapeutics” (Frontiers in Aging Neuroscience, 2022):

Legend:
C57BL/6 (B6) male mice [1] = test: Histopathological analysis of spleen, kidney and liver; type: in vivo
Method: Spleen, kidney, and liver tissue samples from the control and treated animals were fixed in 4% formaldehyde and embedded into paraffin. The analysis and evaluation were performed at the Czech Centre for Phenogenomics, Institute of Molecular Genetics of the CAS, Vestec, using Leica ASP6025 automatic vacuum tissue processor for tissue processing, Leica EG1150 H + C embedding station for embedding, and Leica RM2255 rotary microtome for sectioning (2 μm sections). Standard haematoxylin and eosin (HE) descriptive histopathological staining was done using Leica ST5020 + CV5030 stainer and coverslipped.

IR-RPE-1 senescent cells = test: Time-lapse microscopy of IR-senescent RPE-1; type: cell-based, human
Method: (§1) To obtain ionizing radiation (IR)-induced senescent cells, proliferating RPE-1 cells were exposed to a single dose of X-rays (20 Gy) using Pantak HF160 (Gulmay, Surrey, UK) X-ray instrument equipped with Pantak Seifert HF320 generator, MXR-161 X-ray tube (Comet AG, Flamatt, Switzerland), and an aluminum filter using current 1–10 mA. After irradiation, the cells were cultured for an additional 7 days until the development of the senescent phenotype ([Salovska et al., 2022]). To induce docetaxel-induced senescence (DIS), BJ cells were exposed to 5 nM docetaxel for 7 days, as described previously ([Sapega et al., 2018]). To prepare temozolomide (TMZ)-induced senescence, U87 cells were exposed to 100 μM TMZ for 14 days.
(§2) For auto-monitoring of cells, Incucyte SX1 Live-Cell Analysis System (Sartorius, Göttingen, Germany), located in an incubator maintained at 37°C under a 5% CO2 atmosphere and 95% humidity, was utilized. The images (1,408 × 1,040 pixels at 1.24 microns/pixel) were acquired using a 10× objective lens in phase contrast, red fluorescence (excitation: 585 ± 20 nm, emission: 635 [625, 705] nm, acquisition time: 100 ms) channels every 60 min during 72 h. The first image was acquired 30 min after adding compounds. The images were processed to measure cell confluence using Incucyte software (version 2022A). […]

TMZ-U87 cells = test: Time-lapse microscopy with annexin V of TMZ-induced senescent U87; type: cell-based, human; details: 0–100 μM, 72 h
Method: as §1, §2

C57BL/6 (B6) male mice [2] = test: In vivo tolerability study (behaviour, signs of toxicity, body weight); details: p.o. 5, 25 and 50 mg/kg body weight, days 0, 3, 5
Method: C57BL/6 (B6) male mice, 8–12 weeks old, were obtained from the Institute of Molecular Genetics, Prague, Czech Republic. Experimental protocols were approved by the Institutional Animal Care Committee of the Institute of Molecular Genetics, Prague.
Compounds were dissolved in 20 μL DMSO and completed into 200 μL with corn oil.
During the experiments, mice behavior and possible apparent signs of toxicity were monitored daily. The body weights were determined on days 0, 4, and 8. On day 8, blood (25 μL) was withdrawn using a capillary pipette containing anticoagulant (heparin) from the retroorbital sinus into EDTA-containing tubes. Basic hematological parameters were measured using the Mindray BC-5300 Vet. Mice were then killed, autopsied, and abdominal organs (spleen, liver, and kidney) were removed for visual examination and imaging by a digital camera. Single-cell suspensions from the spleens were prepared by homogenization through a cell strainer (70 μm; BD Biosciences, San Jose, CA, USA). Erythrocytes were osmotically lysed using ammonium chloride-potassium lysis buffer, and the cell suspensions were washed three times in the RPMI-1640 medium and used for further analysis by flow cytometry for selected cell populations.

For CC(C)n1nc(-c2cc3cc(O)ccc3[nH]2)c2c(N)ncnc21 [Torkinib, torkinib], the “histopathology, kidneys” value (C57BL/6 (B6) male mice [1]; mice, 5 mg/kg p.o., HE, 200×) was “focal interstitial fibrosis (arrow), mild tubular damage, hyaline droplets”, the “histopathology, kidneys” value (C57BL/6 (B6) male mice [1]; mice, 5, 25, 50 mg/kg p.o., proportional to dose) was “signs of fibrosis” and the “pathological changes compared to compound 3-treated mice” value (C57BL/6 (B6) male mice [1]; mice, 5, 25, 50 mg/kg p.o., with the exception of the spleen) was “more pronounced”. For the same molecule, the “kind of effect on senescent cells” value (IR-RPE-1 senescent cells) was “rather senomorphic than senolytic effect”, the “senescent cell phenotype in time-lapse microscopy” value (IR-RPE-1 senescent cells) was “rapid onset of vacuolization (after approximately 1 h of exposure) with partial loss of adhesion” and the “cell phenotype in time-lapse microscopy, annexin V staining” value (TMZ-U87 cells) was “same effect”. The “changes in mice behavior and body weights” value (C57BL/6 (B6) male mice [2]) was “no changes”.
